Reference: publication PMC4737874
No constants are given. Whether binding was seen depends on the method and setting. In cells and extracts the contact can be indirect. Some entries that bind do so weakly or less than the wild type.

Protein sequences, listed by entry. Tags and fused reporters are not part of them. Residues count along the entry.
UniProt P05362, residues 28-532: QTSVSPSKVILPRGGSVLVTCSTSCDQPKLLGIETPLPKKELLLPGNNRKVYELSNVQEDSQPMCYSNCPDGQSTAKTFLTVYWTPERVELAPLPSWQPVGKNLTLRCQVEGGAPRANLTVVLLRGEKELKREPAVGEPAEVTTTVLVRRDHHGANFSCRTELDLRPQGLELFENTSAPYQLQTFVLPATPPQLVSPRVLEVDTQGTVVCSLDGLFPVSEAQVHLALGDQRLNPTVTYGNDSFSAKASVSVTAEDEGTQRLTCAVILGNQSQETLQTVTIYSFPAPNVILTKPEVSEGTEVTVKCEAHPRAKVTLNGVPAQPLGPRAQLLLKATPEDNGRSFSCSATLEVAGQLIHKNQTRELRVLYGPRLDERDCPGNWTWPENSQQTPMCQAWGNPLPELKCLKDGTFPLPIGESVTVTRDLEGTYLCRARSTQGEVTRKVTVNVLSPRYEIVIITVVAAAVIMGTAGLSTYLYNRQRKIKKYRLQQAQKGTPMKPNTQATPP
UniProt Q9NZN5: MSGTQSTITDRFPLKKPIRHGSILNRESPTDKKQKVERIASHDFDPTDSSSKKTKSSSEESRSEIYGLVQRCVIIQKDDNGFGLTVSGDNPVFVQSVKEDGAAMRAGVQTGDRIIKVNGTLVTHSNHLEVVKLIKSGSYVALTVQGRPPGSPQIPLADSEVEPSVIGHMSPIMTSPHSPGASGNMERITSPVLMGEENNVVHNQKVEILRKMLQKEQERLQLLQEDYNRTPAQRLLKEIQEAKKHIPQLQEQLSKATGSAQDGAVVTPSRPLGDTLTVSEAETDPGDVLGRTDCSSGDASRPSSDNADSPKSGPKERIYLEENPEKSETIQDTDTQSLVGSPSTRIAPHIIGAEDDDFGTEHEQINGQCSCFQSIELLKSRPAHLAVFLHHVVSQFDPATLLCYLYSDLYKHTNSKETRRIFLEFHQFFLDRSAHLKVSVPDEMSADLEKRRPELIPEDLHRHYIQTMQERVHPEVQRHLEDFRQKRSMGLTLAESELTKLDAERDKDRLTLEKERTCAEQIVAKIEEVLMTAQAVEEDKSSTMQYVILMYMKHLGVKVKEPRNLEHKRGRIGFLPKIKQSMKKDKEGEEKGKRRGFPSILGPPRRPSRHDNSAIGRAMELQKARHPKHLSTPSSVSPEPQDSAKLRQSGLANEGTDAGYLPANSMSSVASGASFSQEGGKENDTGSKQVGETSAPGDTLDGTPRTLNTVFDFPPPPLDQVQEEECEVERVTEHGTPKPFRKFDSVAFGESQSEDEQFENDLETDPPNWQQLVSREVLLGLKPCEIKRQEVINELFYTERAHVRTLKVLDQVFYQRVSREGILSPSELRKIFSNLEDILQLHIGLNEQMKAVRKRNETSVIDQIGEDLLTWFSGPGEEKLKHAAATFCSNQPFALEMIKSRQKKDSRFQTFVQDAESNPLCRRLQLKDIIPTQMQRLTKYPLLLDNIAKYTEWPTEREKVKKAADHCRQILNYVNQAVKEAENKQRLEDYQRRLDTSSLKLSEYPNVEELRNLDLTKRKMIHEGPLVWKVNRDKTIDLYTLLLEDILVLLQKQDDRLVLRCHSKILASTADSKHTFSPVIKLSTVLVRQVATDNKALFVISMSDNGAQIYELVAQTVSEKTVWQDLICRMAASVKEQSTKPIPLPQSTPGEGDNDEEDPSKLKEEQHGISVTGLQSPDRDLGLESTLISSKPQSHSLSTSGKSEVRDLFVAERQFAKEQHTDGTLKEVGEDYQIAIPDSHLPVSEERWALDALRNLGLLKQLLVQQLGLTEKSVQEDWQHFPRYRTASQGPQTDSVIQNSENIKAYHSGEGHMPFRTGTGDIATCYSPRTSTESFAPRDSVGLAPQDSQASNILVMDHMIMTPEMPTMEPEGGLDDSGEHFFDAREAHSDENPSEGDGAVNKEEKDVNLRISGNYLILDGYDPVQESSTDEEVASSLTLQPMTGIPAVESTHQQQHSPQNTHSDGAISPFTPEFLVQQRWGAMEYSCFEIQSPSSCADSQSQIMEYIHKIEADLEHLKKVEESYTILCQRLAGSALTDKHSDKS

Molecular target: ICAM-1 (human (endogenous in HUVEC)) (UniProt P05362)
Assay: co-IP; pull-out: beads coated with anti-ICAM-1 or anti-PECAM-1 antibody cluster the receptor on TNF-α treated HUVEC (for ICAM-1: ionomycin 1 μM 10 min, clustering 10-30 min), lysis in RIPA buffer pH 7.4, beads with lysate 1-2 h at 4 °C, washes, western blot

With LARG (from UniProt Q9NZN5 1-1544) the binding was “binds”.
